Here are results for one compound from publication PMC10384675, “Novel Thiazolidine-2,4-dione-trimethoxybenzene-thiazole Hybrids as Human Topoisomerases Inhibitors” (Pharmaceuticals, 2023).

What all share (format): cell-based
Experiment [1] relates to MCF-7 breast cancer cells. In words: MTT cell viability assay, MCF-7. The following applies: Homo sapiens, MCF7, 72 h, read-out: IC50 MCF-7. On the procedure: (§1) All of the synthesized compounds (7a–f) were studied to test their anticancer activity toward the estrogen receptor-positive (ER+) MCF-7 and the triple-negative MDA-MB-231 breast cancer cells (ER-, PR- and HER-2/Neu not overexpressed) and A2058 melanoma cells. Cells were incubated for 72 h with different concentrations of the compounds, and then the viability was checked by the MTT assay. […] Moreover, we checked the cytotoxicity of all of the synthesized compounds against the human MCF-10A non-malignant breast epithelial cells and mouse BALB/3T3 embryonic fibroblasts, in order to evaluate their selectivity on cancer cells.
(§2) The used cell lines (breast cancer cell lines MCF-7 and MDA-MB-231, melanoma cell line A2058 and human mammary epithelial cell line MCF-10A) were obtained from American Type Culture Collection (ATCC, Manassas, VA, USA) and cultured as already reported. The mouse BALB/3T3 embryonic fibroblasts were also purchased from American Type Culture Collection (ATCC, Manassas, VA, USA) and cultured in DMEM high glucose supplemented with 10% bovine calf serum (BCS) and 100 U mL^−1 penicillin/streptomycin.
(§3) MTT assay (Sigma Aldrich (St. Louis, MO, USA)) was performed for evaluating the in vitro anticancer activities of the compounds, as previously indicated. Different concentrations (0.1, 1, 10, 25, 50, and 100 μM) of the compounds were employed, with a 72 h endpoint. […]
On the technique in general: Tetrazolium assays rely on reduction of a dye to a coloured formazan, in cell work by metabolically active cells.

Another experiment deals with A2058 melanoma cells. In words: MTT cell viability assay, A2058. The following applies: Homo sapiens, A2058, 72 h, read-out: IC50 A2058. On the procedure:
as §1, §2, §3

In experiment [2] the test system is human MCF-10A non-malignant breast epithelial cells. Briefly: MTT cytotoxicity assay, MCF-10A. The following applies: 72 h, read-out: IC50 MCF-10A. On the procedure: as §1, §2, §3
Experiment [3] has as its system MDA-MB-231 breast cancer cells. In words: MTT cell viability assay, MDA-MB-231. The following applies: Homo sapiens, MDA-MB-231, 72 h, read-out: IC50 MDA-MB-231. As to the method: as §1, §2, §3

pIC50: −log10 of the molar value.

For the compound `COc1cc2c(c(OC)c1OC)-c1ccc(OC)c(=O)cc1[C@@H](NC(C)=O)CC2` [colchicine, reference compound], the negative logarithm of the IC50 (pIC50) is 7.80 in experiment [1], 7.47 in the experiment on A2058 melanoma cells, 8.05 in experiment [2] and 7.09 in experiment [3].

As usually defined, the pIC50 is −log10 of the IC50, conventionally taken in molar units.
